For some assays here: At least one structure is not confirmed: it was looked up by name or label, or the drawing left a doubt. Some of these results come from one statement about several compounds together.
Legend:
Caco-2 cells = test: PGE2 assay in Caco-2 cells; type: cell-based, human; settings: preincubation with inhibitor 30 min, BFGF or PDGF 24 h
Procedure: (§1) Caco-2 cells were plated in 6 well plates at a density of 2×10^5 cells/well. After 24 hours, the medium was replaced with fresh medium containing 0.1% serum with or without, sorbinil (20 μM) followed by treatment with either 10 ng/ml BFGF or PDGF, for another 24 h. HT29 cells were plated in 6 well plate at a density of 2×10^5 cells/well. After 24 hours, medium was replaced with serum-free medium with or without, sorbinil or zopolrestat (20 μM) followed by treatment with either EGF (5 ng/ml) or BFGF (10 ng/ml) for another 24 h. The medium from each cell lines was collected from each well and analyzed for PGE2 by using an Enzyme Immuno Assay kit according to the manufacturer's instructions (Cayman Chemical Co., Inc.).
(§2) Briefly, 50 μl of diluted standard/sample were pipetted into a pre-coated goat polyclonal anti-mouse IgG 96-well plate. Aliquots (50 μl) of a PGE2 monoclonal antibody and PGE2 acetylcholine esterase (AchE) conjugate, (PGE2 tracer) were added to each well and allowed to incubate at 4° C. for 24 h. After incubation, the wells were washed five times with wash buffer containing 0.05% Tween-20, followed by the addition of 200 μl of Ellman's reagent containing acetylthiocholine and 5,5′-dithio-bis-(2-nitrobenzoic acid). Samples were read after 60 min at 412 nm with an ELISA reader. […]

HT29 cells [1] = test: HT29 cell proliferation, MTT assay; type: cell-based; settings: 20 μM, 24 h
Procedure: HT29 cells were grown to confluence in McCoy's medium and harvested and plated 2,500 per well in a 96-well plate. Subconfluent cells were growth arrested in 0.1% FBS with or without AR inhibitor sorbinil or zopolrestat (20 μM). After 24 hours, EGF (5 ng/ml) or BFGF (10 ng/ml) was added to the medium and the cells were incubated for another 24 hours. Cells incubated with the AR inhibitors alone served as control. Cell viability was determined by an MTT assay.

HT29 cells [2] = test: PGE2 assay in HT29 cells; type: cell-based; settings: 20 μM
Procedure: as §1, §2

HT29 cells [3] = test: Cell invasion assay, HT29; type: cell-based; settings: 75 μM, EGF 5 ng/ml, 24 hrs
A549 cells = test: Cell invasion assay, A549; type: cell-based, human; settings: 100 μM, 5% FBS, 24 hrs

Structure (SMILES)	growth factor-induced production of PGE2 (Caco-2 cells)	attenuation of EGF and BFGF-stimulated HT29 cell growth (HT29 cells [1])	prevention of EGF and BFGF-induced PGE2 production (HT29 cells [2])	prevention of invasion of HT29 cells through matrigel (HT29 cells [3])	prevention of invasion of A549 cells through matrigel (A549 cells)
CS(=O)(=O)c1ccc(-c2cc(Br)sc2-c2ccc(F)cc2)cc1 [DUP697]	attenuated				
O=C(O)Cc1nn(Cc2nc3cc(C(F)(F)F)ccc3s2)c(=O)c2ccccc12 [zopolrestat, 3,4-dihydro-4-oxo-3-[[5-(trifluoromethyl)-2-benzothiazolyl]methyl]-1-phthalazineacetic acid]		> 60%	> 90%	more than 70%	more than 60%

— patent US8551997B2, “Structural-based inhibitors of the glutathione binding site in aldose reductase, methods of screening therefor and methods of use” (The Board of Regents of the University of Texas System, priority 2004, dated 2013)
